Drawing on PubChem BioAssay AID328 (DTP/NCI, 2004), this text covers T/C and survivor count for eleven molecules.

The assay has as its system BDF1 mice, P388 leukemia ip, median survival T/C. Nature of the assay: NCI In Vivo Anticancer Drug Screen. Data for tumor model P388 Leukemia (intraperitoneal) in B6D2F1 (BDF1) mice. As to conditions: T/C endpoint: median survival time, higher T/C = longer survival. In outline: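 Transplantable tumour in mice; compound vs vehicle dosing; survival scored; ratio of treated to control reported.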

[1] abbreviates: dose: 400.0 mg/kg/injection, schedule: Q04DX003 (ip), vehicle: saline.
[2] abbreviates: dose: 100.0 mg/kg/injection, schedule: Q04DX003 (ip), vehicle: saline.
Setting [3] is: dose: 200.0 mg/kg/injection, schedule: Q01DX009 (ip), vehicle: saline with Tween-80.

Molecules are shown by their SMILES. The list is a part of this screen's results and no random one: it is rich in T/C values a quarter to a half above the control, in often repeated tests (any T/C) and in doses without a T/C. Further doses and runs are listed elsewhere. T/C is the treated group as % of the vehicle group. Some entries give survivors of the animals treated and no T/C: the source holds a T/C of zero for them, seemingly a mark for toxic or unscored doses. Some doses without a T/C left all or most animals alive at the check, yet need not have been tolerated: the source hardly ever lists a survival T/C far under the control, and the zero likely stands for such cases as well. Survivors were counted at the toxicity check, usually on the fifth day, unless a day is given; later deaths do not show. Schedules are NCI's codes, taken here to give the interval after Q, in days (D) or hours (H), and the number of doses after X. Where survival is the endpoint, the PubChem record calls one and a half times the control and up active, and a quarter to a half above the control has no call in these data; cut-offs in other NCI protocols can differ. Some entries were tested several times; the values are given in rising order. Some T/C values carry the count of animals alive at the toxicity check (mostly the fifth day); without a count, all were alive then. Starred links: 1 amine or outer side, 2 acyl side, 3 side chain; linkers in the order of their positions; H or OH if unused. Positions of bridges follow the written chain, without caps; N, C: chain ends. Non-standard residues stand in square brackets, D forms with d. Residues, ends and D or L forms follow the SMILES beside them. Chains are numbered I, II in the order given. Actinocin(1to9) = Cc1c2oc3c(C)ccc(C(=O)[*:2])c3nc-2c(C(=O)[*:1])c(N)c1=O; X3 = O=C1CC(C(=O)[*:2])N([*:1])C1; NMeV = CN[CH](C(=O)O)C(C)C; Sar = CNCC(=O)O

As for `Cc1c2oc3c(C)ccc(C(=O)NC4C(=O)NC(C(C)C)C(=O)N5CCCC5C(=O)N(C)CC(=O)N(C)C(C(C)C)C(=O)OC4C)c3nc-2c(C(=O)NC2C(=O)NC(C(C)C)C(=O)N3CC(=O)CC3C(=O)N(C)CC(=O)N(C)C(C(C)C)C(=O)OC2C)c(N)c1=O` (configuration not stated) (I: TV[X3][Sar][NMeV] / II: TVP[Sar][NMeV]; ester I:1-I:C, II:1-II:C; linker I:N-II:N via Actinocin(1to9); configuration not given here), the T/C runs as follows: (dose: 3.1 micrograms/kg/injection, schedule: Q01DX009 (ip), vehicle: water) 142 % of control [8 of 9 alive]; (dose: 6.2 micrograms/kg/injection, schedule: Q01DX009 (ip), vehicle: water) 137 % of control; (dose: 12.5 micrograms/kg/injection, schedule: Q01DX001 (ip), vehicle: water) 137 % of control; (dose: 18.7 micrograms/kg/injection, schedule: Q04DX003 (ip), vehicle: water) 140 % of control; (dose: 100.0 micrograms/kg/injection, schedule: Q01DX001 (ip), vehicle: water) 149 % of control. In addition, the survivor count (dose: 200.0 micrograms/kg/injection, schedule: Q01DX001 (ip), vehicle: water) is given as 2 of 10.
Regarding `ClCCN(CCCl)CCCN1c2ccccc2Sc2ccc(Cl)cc21`, the T/C by setting is: (dose: 3.1 mg/kg/injection, schedule: Q04DX003 (ip), vehicle: saline with Tween-80) 138 % of control; (dose: 12.5 mg/kg/injection, schedule: Q04DX003 (ip), vehicle: saline with Tween-80) 128 % of control. In addition, the survivor count (dose: 25.0 mg/kg/injection, schedule: Q04DX003 (ip), vehicle: saline with Tween-80) is 4 of 6.
For `CC(O)C1CCCNC1` (configuration not stated), the survivor count by setting is: (dose: 200.0 mg/kg/injection, schedule: Q01DX009 (ip), vehicle: saline) 5 of 6; under setting [1], 5 of 6.
Consider `C(CC1CO1)CC1OC1CC1CO1` (configuration not stated), for which the survivor count (dose: 225.0 mg/kg/injection, schedule: Q04DX003 (ip), vehicle: saline) is on record as 0 of 6.
In the case of `COc1ccc(OC)c(NC=O)c1`, where the note is “dose: 50.0 mg/kg/injection, schedule: Q01DX009 (ip), vehicle: saline with Tween-80”, the T/C is 130 % of control.
In the case of `COC(=O)C[C@](O)(CCC(C)C)C(=O)O[C@@H]1C(OC)=C[C@]23CCCN2CCc2cc4c(cc2[C@H]13)OCO4`, the T/C by setting is: (dose: 0.5 mg/kg/injection, schedule: Q01DX010 (ip), vehicle: saline) 127 and 145 % of control; (dose: 4.0 mg/kg/injection, schedule: Q01DX010 (ip), vehicle: saline) 140 % of control.
In the case of `CC(C)c1oc(=O)cc2c1[C@@H](O)[C@H]1OC(=O)[C@@]3(C)[C@@H](O)[C@H]4O[C@H]4[C@@]2(C)[C@@H]13`, the survivor count was 0 of 6 (dose: 60.0 mg/kg/injection, schedule: Q01DX001 (ip), vehicle: saline with Tween-80); 0 of 6 (dose: 60.0 mg/kg/injection, schedule: Q04DX003 (ip), vehicle: saline with Tween-80); 0 of 6 (dose: 120.0 mg/kg/injection, schedule: Q01DX001 (ip), vehicle: saline with Tween-80); 0 of 6 (dose: 120.0 mg/kg/injection, schedule: Q04DX003 (ip), vehicle: saline with Tween-80); 0 of 6 (dose: 240.0 mg/kg/injection, schedule: Q01DX001 (ip), vehicle: saline with Tween-80).
`CC1CN1c1nc(N2CC2C)nc(N2CC2C)n1` (configuration not stated): the survivor count was 3 of 6 (dose: 12.0 mg/kg/injection, schedule: Q01DX009 (ip), vehicle: saline); 3 of 6 (dose: 25.0 mg/kg/injection, schedule: Q04DX003 (ip), vehicle: saline); 0 of 6 (dose: 50.0 mg/kg/injection, schedule: Q04DX003 (ip), vehicle: saline); 0 of 6 under setting [2]; 0 of 6 (dose: 200.0 mg/kg/injection, schedule: Q04DX003 (ip), vehicle: saline); 0 of 6 under setting [1].
`CCOC(=O)C1=S=C(SC)N(C)C1=O`: the T/C under setting [3] was 132 % of control [5 of 6 alive]. For the same molecule, the survivor count was 1 of 6 under setting [3] and 0 of 6 (dose: 400.0 mg/kg/injection, schedule: Q01DX009 (ip), vehicle: saline with Tween-80).
Regarding `OCC1OC(n2ccc3c2ncn2nnnc32)C(O)C1O` (configuration not stated), the survivor count is, setting by setting: (dose: 50.0 mg/kg/injection, schedule: Q01DX009 (ip), vehicle: saline) 6 of 6; under setting [2], 6 of 6.
As for `CN(c1ccccc1)c1cc2c(cc1[N+](=O)[O-])no[n+]2[O-]`, the T/C (dose: 30.0 mg/kg/injection, schedule: Q01DX009 (ip), vehicle: saline with Tween-80) was 133 % of control.
